Experimental data reported in PubChem BioAssay AID540275 (National Center for Advancing Translational Sciences (NCATS), 2011).
Among all 320,000 compounds or so, about 620 (0.19%) were called active. This list was built around the results that the source calls inconclusive (neither active nor inactive); the mix of calls is not that of the screen. No stated cut-off is given here; in the data, active means activation above about 80%; inconclusive means between about 30% and that limit; inactive means weaker than that.

The chains behind the UniProt entries cited, without tags or fusion partners.
UniProt Q8NER1, whole entry, looked up: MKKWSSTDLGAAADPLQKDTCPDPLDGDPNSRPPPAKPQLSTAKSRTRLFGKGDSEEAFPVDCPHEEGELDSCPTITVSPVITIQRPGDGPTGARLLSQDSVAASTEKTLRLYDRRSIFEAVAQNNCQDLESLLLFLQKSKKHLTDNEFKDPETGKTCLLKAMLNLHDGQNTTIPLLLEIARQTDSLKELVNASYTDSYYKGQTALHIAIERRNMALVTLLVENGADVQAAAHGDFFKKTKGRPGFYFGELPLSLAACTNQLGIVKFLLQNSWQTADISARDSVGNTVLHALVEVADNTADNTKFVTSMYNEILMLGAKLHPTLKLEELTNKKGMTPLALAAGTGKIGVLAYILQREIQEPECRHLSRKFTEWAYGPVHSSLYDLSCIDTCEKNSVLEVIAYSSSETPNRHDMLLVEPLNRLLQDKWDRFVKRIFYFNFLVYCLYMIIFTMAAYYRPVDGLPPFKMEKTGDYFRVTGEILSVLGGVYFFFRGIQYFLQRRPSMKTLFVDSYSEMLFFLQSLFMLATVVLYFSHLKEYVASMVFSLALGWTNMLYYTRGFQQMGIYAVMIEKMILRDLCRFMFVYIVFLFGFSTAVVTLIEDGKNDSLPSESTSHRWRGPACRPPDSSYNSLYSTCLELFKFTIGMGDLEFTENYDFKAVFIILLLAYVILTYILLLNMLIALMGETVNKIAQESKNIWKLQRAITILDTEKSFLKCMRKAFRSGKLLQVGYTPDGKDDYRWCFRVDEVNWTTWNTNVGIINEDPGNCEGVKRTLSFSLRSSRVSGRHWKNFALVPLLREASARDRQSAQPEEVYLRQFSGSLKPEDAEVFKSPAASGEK

Target: Transient receptor potential cation channel subfamily V member 1 (Homo sapiens) (UniProt Q8NER1)
Assay: HTS Assay for Compounds that Act as Agonists of the Vanilloid Receptor 1; further: 0% is about no effect
Details: TRPV1-expressing cells, Fluo-8 calcium influx, agonist mode; at 8.33 µM, stronger effect = higher value
Method in brief: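 Cells expressing TRPV1 were dye-loaded with Fluo-8 and read kinetically: 10 s baseline, 3 min after compound (agonist portion), then 2 min after EC20 capsaicin (allosteric enhancer portion). Calcium-bound dye fluorescence at 480/520 nm.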

Compound	activation
O=c1oc2ccccc2cc1-c1csc(Nc2ccc(O)cc2)n1	inconclusive: 39.7%
Cc1ccc(COCC(CC(C)C)N2CCN(C(=O)c3cccc(C(F)(F)F)c3)CCC2=O)cc1 (stereo not given)	inconclusive: 69.1%
COc1cc(C2C3=C(CC(C)(C)CC3=O)Nc3ccccc3N2C(C)=O)cc(OC)c1OC (stereo not given)	inactive: -7.09%
COc1cc(NC(=O)CSCc2ccc(Cl)cc2)c(C(=O)O)cc1OC	inactive: 0.839%
CCOC(=O)C1=C(c2ccccc2)OC(N)=C(C#N)C1C1CCCCC1 (stereo not given)	inconclusive: 49.7%
COc1ccc(/C=N\NC(=O)c2cccc([N+](=O)[O-])c2)cc1Cn1cc([N+](=O)[O-])cn1	inactive: 1.3%
CC(=O)Nc1ccc(N2C(C(C)=O)=NN(c3ccc(Cl)cc3)C2c2sccc2C)cc1 (stereo not given)	inconclusive: 36.5%
CC1CCN(c2oc(-c3ccc(F)cc3)nc2C#N)CC1	inconclusive: 61.8%
COc1ccc(-n2cnc3cc(NCc4ccccn4)ccc32)cc1	inactive: 11.1%
CSc1ccc(/C=N/NC(=O)c2sccc2C)cc1	inconclusive: 42%
Cc1cccc(N2CCN(C(=O)c3cn4ccccc4n3)CC2C)c1 (stereo not given)	inconclusive: 58.2%
Cc1ccc(CNC(=O)NC2CCCCC2)cc1	inconclusive: 39%
CC1CC(C)CN(C(=O)CCCNC(=O)c2ccc(Cl)cc2)C1 (stereo not given)	inconclusive: 38.7%
O=[N+]([O-])c1ccc(Cl)c(/C=N/n2c(COc3ccccc3)n[nH]c2=S)c1	inconclusive: 77.6%
O=C(CCCc1nc(-c2ccc(Cl)cc2)no1)N1CCOCC1	inconclusive: 45.1%
O=C(NCc1ccc2c(c1)OCO2)Nc1cccc(Cl)c1	inconclusive: 34.9%
Cc1ccc(NC(=O)C2CC(=O)n3c(nc4ccccc43)N2)cc1Cl (stereo not given)	inactive: 0.124%
CC(=O)c1ccc(NC(=S)NC(=O)c2c(Cl)c(C)nn2C)cc1	inactive: 0.204%
CCOC(=O)CNC(=O)Nc1cccc(Cl)c1C	inactive: 2.65%
Cc1onc(C(=O)Nc2cccc(C(F)(F)F)c2)c1[N+](=O)[O-]	inconclusive: 38.3%
CC1CCCCN1C(=O)CSc1nnc(-c2ccccc2O)o1 (stereo not given)	inconclusive: 60.6%
CCOc1cc(N2CCOCC2)c(OCC)cc1NC(=O)CN1CCSC1=O	inactive: -2.34%
CCc1ccc(C(O)(c2ccccc2OC)C(CN2CCOCC2)c2ccccc2)cc1 (stereo not given)	inconclusive: 54.8%
Cc1ccc(C(=O)CCC(=O)N2CCN(c3ccc(F)cc3)CC2)cc1	inconclusive: 47.1%
CN(C)c1ccc(/C=N/NC(=S)NCc2ccccc2)cc1	inactive: -2.31%

A few values from the results shown:
`COc1cc(NC(=O)CSCc2ccc(Cl)cc2)c(C(=O)O)cc1OC` | activation: inactive: 0.839%
`Cc1onc(C(=O)Nc2cccc(C(F)(F)F)c2)c1[N+](=O)[O-]` | activation: inconclusive: 38.3%
